{
  "source": "patent US20190023770A1",
  "binders": {"B1": {"name": "mAb 39.29 NCv1 Fab fragment (Fab, V domains shown)", "VH": "QVQLVESGGGVVQPGKSPRLSCAASGPTFSSYAVHWVRQAPGKGLEWVTLISYDGANQYYADSVKGRFTISRDNSKNTVYLQMNSLRPEDTAVYYCAVPGPVFGIFPPWSYFDNWGQGILVTVSS", "VL": "EIVLTQSPATLSVSPGERATLSCRASQVISHNLAWYQQKPGQAPRLLIYGASTRASGIPARFSGSGSGTDYTLTITSLQPEDFAVYYCQHYSNWPPRLTFGGGTKVEIK"}},
  "target": "recombinant hemagglutinin H3 from human influenza A virus strain A/Perth/16/2009, extracellular domain residues 25-520 (influenza A virus A/Perth/16/2009) (UniProt O11283)",
  "experiment": "co-crystal structure at 3.1 A; complex isolated by size exclusion chromatography",
  "note": "Results are given in words; binding and its absence hold for the method and conditions named. Some entries that bind do so weakly or less than the wild type.",
  "data": [
    {"binder": "B1", "values": [
      {"measurement": "binding", "value": "binds"}
    ]}
  ]
}
